These are yes or no findings as the source states them, for the method shown. In cells and extracts the contact can be indirect. A yes stands for co-enrichment or nearness to the bait. Other partners may have been found. One block for each molecule: values may come before it.
Experiments:
[1] = target: estrogen receptor-alpha (human (endogenous in MCF7 and T47D)) (UniProt P03372); assay: affinity purification with mass spectrometry; qPLEX-RIME (RIME with TMT isobaric labels) of ER from formaldehyde-fixed MCF7 cells treated with estradiol for 45 and 90 min; ER is the bait
[2] = target: T1, GRHL2 (human (endogenous in MCF7 and T47D)) (UniProt Q6ISB3); assay: affinity purification with mass spectrometry; qPLEX-RIME (RIME with TMT isobaric labels) of GRHL2 in estrogen-free and estrogenic conditions; GRHL2 is the bait; cell line not stated
T1 sequence: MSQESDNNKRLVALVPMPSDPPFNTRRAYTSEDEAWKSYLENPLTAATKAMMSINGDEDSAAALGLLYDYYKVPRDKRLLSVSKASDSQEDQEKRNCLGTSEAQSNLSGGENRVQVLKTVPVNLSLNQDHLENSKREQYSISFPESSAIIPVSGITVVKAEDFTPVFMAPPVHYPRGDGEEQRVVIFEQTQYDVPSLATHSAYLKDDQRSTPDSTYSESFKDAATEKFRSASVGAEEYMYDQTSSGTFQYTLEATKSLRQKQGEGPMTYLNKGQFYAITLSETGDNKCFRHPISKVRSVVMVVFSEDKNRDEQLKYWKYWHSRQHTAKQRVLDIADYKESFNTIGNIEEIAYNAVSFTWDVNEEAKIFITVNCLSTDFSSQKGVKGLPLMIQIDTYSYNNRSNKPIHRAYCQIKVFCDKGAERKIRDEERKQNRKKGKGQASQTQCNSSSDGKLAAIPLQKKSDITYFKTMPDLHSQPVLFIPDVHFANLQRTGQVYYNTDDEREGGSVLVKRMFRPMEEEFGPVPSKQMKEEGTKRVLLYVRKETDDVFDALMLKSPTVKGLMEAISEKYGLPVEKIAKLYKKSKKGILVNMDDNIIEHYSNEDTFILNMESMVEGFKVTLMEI

The chains behind the UniProt entries cited, without tags or fusion partners. Where a name states a change or a piece, a line headed by the entry shows the natural chain unless it says otherwise.
UniProt P03372: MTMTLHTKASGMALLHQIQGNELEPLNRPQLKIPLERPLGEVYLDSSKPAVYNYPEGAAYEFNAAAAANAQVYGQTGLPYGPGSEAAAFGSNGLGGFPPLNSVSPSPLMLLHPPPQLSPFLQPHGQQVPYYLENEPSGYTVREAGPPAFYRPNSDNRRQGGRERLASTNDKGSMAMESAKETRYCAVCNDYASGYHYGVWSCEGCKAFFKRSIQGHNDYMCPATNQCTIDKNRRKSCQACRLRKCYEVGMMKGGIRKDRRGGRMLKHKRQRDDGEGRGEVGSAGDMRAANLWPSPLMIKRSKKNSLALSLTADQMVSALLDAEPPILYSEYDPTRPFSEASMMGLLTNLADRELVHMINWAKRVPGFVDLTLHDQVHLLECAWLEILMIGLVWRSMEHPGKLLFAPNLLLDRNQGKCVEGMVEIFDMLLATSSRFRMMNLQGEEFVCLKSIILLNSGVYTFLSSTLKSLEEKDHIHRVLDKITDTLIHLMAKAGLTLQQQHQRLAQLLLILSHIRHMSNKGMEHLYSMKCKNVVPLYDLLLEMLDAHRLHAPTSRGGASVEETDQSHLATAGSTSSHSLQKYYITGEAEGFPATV
UniProt P10276: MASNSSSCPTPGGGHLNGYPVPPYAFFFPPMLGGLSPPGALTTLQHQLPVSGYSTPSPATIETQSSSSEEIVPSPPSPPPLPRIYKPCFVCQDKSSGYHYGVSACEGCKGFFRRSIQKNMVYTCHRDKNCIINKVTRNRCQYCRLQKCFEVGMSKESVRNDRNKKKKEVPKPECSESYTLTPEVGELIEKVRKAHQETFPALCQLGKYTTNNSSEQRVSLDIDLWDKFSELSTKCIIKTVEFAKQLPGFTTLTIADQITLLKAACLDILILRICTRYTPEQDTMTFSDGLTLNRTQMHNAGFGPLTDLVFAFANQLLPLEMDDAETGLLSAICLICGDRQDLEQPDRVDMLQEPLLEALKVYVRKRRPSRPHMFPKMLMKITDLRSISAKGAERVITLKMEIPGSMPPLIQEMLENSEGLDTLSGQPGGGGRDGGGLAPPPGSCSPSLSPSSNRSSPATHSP
UniProt P23771: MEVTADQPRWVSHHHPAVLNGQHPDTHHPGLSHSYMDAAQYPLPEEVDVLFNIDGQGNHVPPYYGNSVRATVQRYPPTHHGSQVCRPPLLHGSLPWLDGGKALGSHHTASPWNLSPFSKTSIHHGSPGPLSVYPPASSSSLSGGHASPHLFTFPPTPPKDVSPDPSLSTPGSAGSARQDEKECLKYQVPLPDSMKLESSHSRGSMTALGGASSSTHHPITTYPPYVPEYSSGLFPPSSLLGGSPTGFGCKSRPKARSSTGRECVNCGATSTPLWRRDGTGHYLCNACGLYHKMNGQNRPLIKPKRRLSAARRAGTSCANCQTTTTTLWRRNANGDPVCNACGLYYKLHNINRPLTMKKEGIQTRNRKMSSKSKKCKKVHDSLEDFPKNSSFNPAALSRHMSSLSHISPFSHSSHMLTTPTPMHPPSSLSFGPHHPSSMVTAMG
UniProt Q13547: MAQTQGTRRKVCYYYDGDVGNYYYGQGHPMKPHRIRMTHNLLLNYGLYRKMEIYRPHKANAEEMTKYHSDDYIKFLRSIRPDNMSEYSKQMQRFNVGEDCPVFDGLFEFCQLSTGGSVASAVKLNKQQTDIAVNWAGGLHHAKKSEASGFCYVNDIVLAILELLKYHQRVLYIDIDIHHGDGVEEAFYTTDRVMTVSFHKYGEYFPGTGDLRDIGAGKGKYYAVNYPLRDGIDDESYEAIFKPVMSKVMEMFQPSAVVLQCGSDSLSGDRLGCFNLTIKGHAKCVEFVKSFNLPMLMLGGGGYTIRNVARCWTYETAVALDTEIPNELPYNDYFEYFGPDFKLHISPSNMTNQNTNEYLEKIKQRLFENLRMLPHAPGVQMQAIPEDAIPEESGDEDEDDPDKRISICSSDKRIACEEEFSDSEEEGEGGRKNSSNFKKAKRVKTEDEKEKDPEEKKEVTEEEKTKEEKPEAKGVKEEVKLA

Molecule: PRMT
binding [2]: binds

Molecule: RARA (from UniProt P10276 1-462)
binding [1]: binds

Molecule: estrogen receptor-alpha (from UniProt P03372 1-595)
binding [2]: binds

B2: TIF1A (protein, UniProt O15164 1-1050)
chain: MEVAVEKAVAAAAAASAAASGGPSAAPSGENEAESRQGPDSERGGEAARLNLLDTCAVCHQNIQSRAPKLLPCLHSFCQRCLPAPQRYLMLPAPMLGSAETPPPVPAPGSPVSGSSPFATQVGVIRCPVCSQECAERHIIDNFFVKDTTEVPSSTVEKSNQVCTSCEDNAEANGFCVECVEWLCKTCIRAHQRVKFTKDHTVRQKEEVSPEAVGVTSQRPVFCPFHKKEQLKLYCETCDKLTCRDCQLLEHKEHRYQFIEEAFQNQKVIIDTLITKLMEKTKYIKFTGNQIQNRIIEVNQNQKQVEQDIKVAIFTLMVEINKKGKALLHQLESLAKDHRMKLMQQQQEVAGLSKQLEHVMHFSKWAVSSGSSTALLYSKRLITYRLRHLLRARCDASPVTNNTIQFHCDPSFWAQNIINLGSLVIEDKESQPQMPKQNPVVEQNSQPPSGLSSNQLSKFPTQISLAQLRLQHMQQQVMAQRQQVQRRPAPVGLPNPRMQGPIQQPSISHQQPPPRLINFQNHSPKPNGPVLPPHPQQLRYPPNQNIPRQAIKPNPLQMAFLAQQAIKQWQISSGQGTPSTTNSTSSTPSSPTITSAAGYDGKAFGSPMIDLSSPVGGSYNLPSLPDIDCSSTIMLDNIVRKDTNIDHGQPRPPSNRTVQSPNSSVPSPGLAGPVTMTSVHPPIRSPSASSVGSRGSSGSSSKPAGADSTHKVPVVMLEPIRIKQENSGPPENYDFPVVIVKQESDEESRPQNANYPRSILTSLLLNSSQSSTSEETVLRSDAPDSTGDQPGLHQDNSSNGKSEWLDPSQKSPLHVGETRKEDDPNEDWCAVCQNGGELLCCEKCPKVFHLSCHVPTLTNFPSGEWICTFCRDLSKPEVEYDCDAPSHNSEKKKTEGLVKLTPIDKRKCERLLLFLYCHEMSLAFQDPVPLTVPDYYKIIKNPMDLSTIKKRLQEDYSMYSKPEDFVADFRLIFQNCAEFNEPDSEVANAGIKLENYFEELLKNLYPEKRFPKPEFRNESEDNKFSDDSDDDFVQPRKKRLKSIEERQLLK
binding [2]: binds

The next lines start with the values.

binding [1]: binds
Molecule: GATA3 (from UniProt P23771 1-443)

binding [2]: binds
Molecule: HDAC1 (from UniProt Q13547 1-482)

binding [1]: binds
B1: GRHL2 (protein, UniProt Q6ISB3 1-625)
chain: T1 sequence

— publication PMC6515683
